# Values quoted from earlier work as cited in patent US20060234297A1, “Screening method” (priority 2003, published 2006).
# For at least one compound, name, drawing or mass did not settle the structure.
# Columns and labels:
# [1] = system: mouse macrophages stimulated with phorbol ester (TPA)
# [2] = system: human macrophages stimulated with phorbol ester (TPA)
structure (smiles),measurement,setting,value
CC(C)n1c(/C=C/C(O)CC(O)CC(=O)O)c(-c2ccc(F)cc2)c2ccccc21 (centres unmarked) [fluvastatin],MMP-9 secretion and production,[1],inhibited MMP-9 secretion and production
same,MMP-9 secretion and production,[2],inhibited MMP-9 secretion and production
